Experimental data: PubChem BioAssay AID1259425 (University of Nebraska Medical Center, 2018)
Here is a random part of about 14,000 reagents. Further read-outs or replicates are left out here. Not given: the time to read-out.

Test: 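Seek colon cancer weak points whose silencing resembles KSR1 loss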 (primary screen)
System: HCT116 human colon cancer cells
Knock-down reagent: siRNA pool against human genes, 50 nM siRNA
Measurement: 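mRNA of six signature genes measured together by branched-DNA assay after 50 nM siRNA pool, blank removed, divided by geometric mean of two housekeeping genes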
Direction: BNIP3L mRNA: higher = more BNIP3L transcript after knockdown

gene | BNIP3L mRNA, set 1
ABCC12 | 0.113
CA10 | 0.323
HCAR2 | 0.124
RGS16 | 0.19
UFM1 | 0.135
TMEM216 | 0.0842
LINC01101 | 0.141
COL14A1 | 0.0736
PRR3 | 0.0993
KRT19 | 0.163
ACTR6 | 0.182
NFS1 | 0.185
EXOC5 | 0.105
WNT6 | 0.0627
XPNPEP3 | 0.0878
TEF | 0.0874
STAC | 0.157
OR52A1 | 0.147
HAGH | 0.0793
TRDN | 0.11
WSCD2 | 0.0907
HYAL1 | 0.0321
ADPRS | 0.181
B4GALT3 | 0.0842
TBC1D30 | 0.0311
SH3PXD2B | 0.0997
PIEZO2 | 0.0716
DDX24 | 0.441
POLR3A | 0.148
RIPK1 | 0.142
RFX1 | 0.107
TXNL4B | 0.149
ZNF627 | 0.137
RAP1GDS1 | 0.0736
RANBP2 | 0.0765
UBR1 | 0.083
UCK2 | 0.155
CDC7 | 0.142
UBASH3B | 0.222
RNF4 | 0.118
MNMIP1 | 0.169
FNBP4 | 0.158
PDZD7 | 0.183
AHSA2P | 0.0771
PTDSS2 | 0.145
CITED2 | 0.0246
EPHX4 | 0.136
BCAS2 | 0.178
NUPR1 | 0.219
TENT5A | 0.108

7 successive records from above:
gene | BNIP3L mRNA, set 1
ACTR6 | 0.182
NFS1 | 0.185
EXOC5 | 0.105
WNT6 | 0.0627
XPNPEP3 | 0.0878
TEF | 0.0874
STAC | 0.157
